Earlier results in US20070065821A1, “Methods for the prediction of suicidality during treatment” (priority 2003, published 2007).
At least one structure is not confirmed: it was looked up by name or label, or the drawing left a doubt.

Settings: vs. olanzapine; patients with schizophrenia or schizoaffective disorder considered at high risk for suicide; 2-year study (Meltzer et al. 2003)

CN1CCN(C2=Nc3cc(Cl)ccc3Nc3ccccc32)CC1 [clozapine, 8-chloro-11-(4-methyl-1-piperazinyl)-5H-dibenzo [be] [1,4] diazepine]
suicidal behavior, including suicide attempts, hospitalizations for suicidal thoughts, need for rescue interventions, required concomitant treatment with anti-depressants, anxiolytics or soporifics: significantly less
